This experiment addresses Dual specificity tyrosine-phosphorylation-regulated kinase 1B (Homo sapiens, UniProt Q9Y463). Kind of experiment: Inhibition of DYRK1B (unknown origin).

Amino acid sequences for entries named in this document (tags omitted).
UniProt Q9Y463, whole entry: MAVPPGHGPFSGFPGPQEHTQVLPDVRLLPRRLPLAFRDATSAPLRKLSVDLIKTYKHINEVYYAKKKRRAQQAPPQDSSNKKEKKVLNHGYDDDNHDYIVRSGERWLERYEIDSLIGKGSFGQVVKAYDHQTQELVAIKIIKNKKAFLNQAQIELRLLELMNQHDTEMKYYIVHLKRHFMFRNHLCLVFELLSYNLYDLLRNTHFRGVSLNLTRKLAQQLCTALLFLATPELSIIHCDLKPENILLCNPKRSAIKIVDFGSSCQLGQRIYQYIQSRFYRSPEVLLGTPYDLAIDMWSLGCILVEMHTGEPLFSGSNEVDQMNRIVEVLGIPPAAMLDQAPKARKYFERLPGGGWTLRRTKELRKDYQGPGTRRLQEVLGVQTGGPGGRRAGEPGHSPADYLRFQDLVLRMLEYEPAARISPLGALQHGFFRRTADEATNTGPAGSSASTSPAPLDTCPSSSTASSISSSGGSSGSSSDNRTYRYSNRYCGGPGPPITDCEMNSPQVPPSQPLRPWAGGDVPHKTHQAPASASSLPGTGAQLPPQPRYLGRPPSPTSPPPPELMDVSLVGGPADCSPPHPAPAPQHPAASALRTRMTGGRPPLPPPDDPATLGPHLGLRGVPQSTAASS

The structures appear in SMILES notation.

`COc1cc(N2CCN(C)CC2)ccc1Nc1nccc(-c2cn(C)c3cnccc23)n1`: the IC50 was determined as 17 nM.

By IC50 is commonly meant the concentration that gives 50% inhibition. Low values mean greater potency, high ones weaker potency.
